Assay results: publication PMC6406280
For at least one entry, the source does not settle the construct or the ends of the probe.

Test system: thrombin
Test: thrombin inhibition (apparent Ki)
Settings: no binding assay done in this paper (SEC, CD/UV melting, analysis of published structures); folded or branched DNA

**Q.** For GGTTGGGTAGGGTGG [NU (00a)], which Ki is on record?
**A.** 46 nM
